Literature values in US20160271257A1, “Low Molecular Weight Immune-Modulators As Adjuvants for Specific Immunotherapy” (PLS-DESIGN GMBH, priority 2013, published 2016).
For at least one compound, name, drawing or mass did not settle the structure.

Conditions: six months, group receiving only glucocorticoids

## CCCC1O[C@@H]2C[C@H]3[C@@H]4CCC5=CC(=O)C=C[C@]5(C)[C@H]4[C@@H](O)C[C@]3(C)[C@]2(C(=O)CO)O1 (stereo partly shown) [budesonide]
  children who experienced asthma exacerbation: 46%
